Assay results taken from PubChem BioAssay AID540276 (National Center for Advancing Translational Sciences (NCATS), 2011).
The campaign covered roughly 300,000 compounds. About 5,400 (1.8%) were called active. The shares of active, inactive and inconclusive entries below differ from those in the screen. Calls follow the shape of the full dose curve; tested in HEK293 cells. Potencies of inconclusive entries are doubtful fits and often do not repeat. Where a structure was tested more than once in an assay, its records may differ in their call.
% is scaled to controls: 0 for no effect and ±100 for the full control effect; potency is read from the fitted curve at half-maximal effect.

Assay: qHTS for inhibitors of binding or entry into cells for Marburg Virus
Details: Marburg virus pseudotyped entry inhibition, cell reporter; activity change, negative = inhibition: at 37.8 µM (top of the series) unless noted
In the case of `COc1cccc(C=Nc2ccccc2C#N)c1O`, the “activity change, negative = inhibition” value is reported as inactive: 9.58%. For `CCOC(=O)c1cnn(-c2ccccc2)c1-n1cccc1C(=O)C(=O)Nc1ccccc1`, the Potency was inconclusive: 10 µM [inhibitor, partial curve, poor fit]. With `COc1ccc(N2CCN(c3nc(Cl)nc(Nc4ccc(F)cc4)n3)CC2)cc1` the Potency was inconclusive: 12.6 µM [inhibitor, single point]. For `O=C(CN1CCCCC1)N1c2ccccc2Sc2ccc(C(F)(F)F)cc21`, the Potency was inconclusive: 35.5 µM [inhibitor, single point]. In the case of `Cc1ccc(S(=O)(=O)N2CCC(=O)N(C(COCc3cccc(C(F)(F)F)c3)Cc3ccccc3)CC2)cc1` (stereo not given), the Potency is reported as inconclusive: 29.1 µM [inhibitor, single point]. In the case of `Oc1ccc2ccccc2c1N=Nc1nccs1`, the Potency is reported as active: 3.55 µM. With `Cc1nc(N)nc(N/N=C/c2c(F)cccc2Cl)n1` the Potency was inconclusive: 15.8 µM [activator, single point]. For `COC(=O)c1ccc(Cl)c(NC(=O)c2cccc([N+](=O)[O-])c2C)c1`, the Potency was inconclusive: 35.5 µM [inhibitor, single point]. With `Cc1cc(C)cc(NC(=O)Nc2cccc(S(N)(=O)=O)c2)c1` the “activity change, negative = inhibition” value was inactive: -19.1% [at 14.2 µM]. For `Cc1ccc(NC(=O)N2CCC(=O)N2)cc1`, the Potency was inconclusive: 23.1 µM [activator, single point]. In the case of `Cc1ccc2[nH]c3c(c2c1)CCCC3=O`, the “activity change, negative = inhibition” value is reported as inactive: -18% [at 46.1 µM]. For `CCOC(=O)Cn1c(=O)oc2cc(S(=O)(=O)Nc3cc(OC)cc(OC)c3)ccc21`, the “activity change, negative = inhibition” value was inactive: -0.639% [at 46.1 µM]. With `O=C1CN(S(=O)(=O)c2cccc(C(=O)O)c2)c2ccccc2N1` the Potency was inconclusive: 35.5 µM [activator, single point]. In the case of `CCc1ccc(NC(=O)c2ccc3c(c2)N(Cc2ccc(C)cc2)CCS3)cc1`, the “activity change, negative = inhibition” value is reported as inactive: -10.6% [at 46.1 µM]. For `Cc1cccc(/C=N/Nc2nncc3ccccc23)c1`, the Potency was inconclusive: 0.891 µM [inhibitor, full curve, poor fit]. For `CCOc1cc2[nH]c(=S)n(CCN3CCCCC3C)c(=O)c2cc1OCC` (stereo not given), the Potency was inconclusive: 20.6 µM [inhibitor, partial curve, poor fit]. With `COc1ccc(-c2nnc(C(C)Nc3cccc(C(=O)NC4CC4)c3)o2)cc1` (stereo not given) the “activity change, negative = inhibition” value was inactive: -5.79%. In the case of `Clc1ccc(-c2nnc3cccc(Cl)n23)c(Cl)c1`, the “activity change, negative = inhibition” value is reported as inactive: 7.69%. In the case of `COc1ccc2c(c1)c(CC(=O)Nc1nnc(C3CC3)s1)c(C)n2C(=O)c1ccc(Cl)cc1`, the Potency is reported as active: 3.16 µM. For `CCS(=O)(=O)N1N=C(c2ccc(NS(C)(=O)=O)cc2)CC1c1ccccc1` (stereo not given), the “activity change, negative = inhibition” value was inactive: 4.12%. In the case of `Cn1ccnc1SCC(=O)c1cccc(Br)c1`, the “activity change, negative = inhibition” value is reported as inactive: 1.28%. In the case of `N#CCCn1cc(C(=O)Nc2ccccc2Cl)c(-c2ccc([N+](=O)[O-])cc2)n1`, the Potency is reported as inconclusive: 0.82 µM [inhibitor, full curve, poor fit]. In the case of `COC(=O)c1cn(C(=O)c2cc(Cl)ccc2Cl)c2ccccc12`, the “activity change, negative = inhibition” value is reported as inactive: 15.9%. With `CCOC(=O)c1c(/N=C/N(C)C)sc(/C=N/Nc2ccccc2)c1-c1ccc(Cl)cc1` the Potency was inconclusive: 16.4 µM [inhibitor, single point]. In the case of `CCN1CCc2c(sc(NC(=O)c3ccc(C(=O)c4ccccc4)cc3)c2C(N)=O)C1`, the Potency is reported as inconclusive: 35.5 µM [inhibitor, single point]. For `O=C(N/N=C/C(Br)=C/c1ccccc1)c1cccnc1`, the Potency was inconclusive: 20 µM [inhibitor, single point]. For `CCC1(c2ccccc2)NC(=S)N(c2cccc(C)c2C)N1` (stereo not given), the “activity change, negative = inhibition” value was inactive: 12.7%. With `Cc1ccc(C(=O)OCc2nnc(-c3ccccc3)o2)o1` the “activity change, negative = inhibition” value was inactive: 6.2%. For `Cc1ccc(C)n1-c1nnc(N2CCC(C(=O)Nc3ccccc3Br)CC2)s1`, the “activity change, negative = inhibition” value was inactive: 4.18% [at 46.1 µM]. With `CCOc1ccc(NC(=O)CCC(=O)NNC(=O)c2ccc(Br)o2)cc1` the “activity change, negative = inhibition” value was inactive: -29.2% [at 46.1 µM]. In the case of `O=S(=O)(c1ccc(F)c(F)c1F)N1CCN(C(=S)Nc2ccccc2)CC1`, the Potency is reported as inconclusive: 6.31 µM [activator, single point]. In the case of `Nc1ccc(-c2nc3ccccc3s2)cn1`, the Potency is reported as inconclusive: 28.2 µM [inhibitor, single point]. In the case of `CC(NC(=O)CCSc1nc(-c2ccco2)cc(C(F)(F)F)n1)c1ccccc1` (stereo not given), the Potency is reported as inconclusive: 32.6 µM [inhibitor, single point]. In the case of `Cc1cccc(Cn2c(=O)n(CCC(=O)NCc3ccc4c(c3)OCO4)c(=O)c3sccc32)c1`, the Potency is reported as inconclusive: 6.31 µM [activator, single point]. For `N#CC(c1ccc(F)cc1)c1ccc(C(=O)c2ccccc2)cc1` (stereo not given), the Potency was inconclusive: 14.1 µM [inhibitor, single point]. With `CC(=O)Nc1ccc(Nc2nc(C)nc3c2oc2ccccc23)cc1` the Potency was inconclusive: 8.2 µM [inhibitor, partial curve, poor fit]. In the case of `N#Cc1ccccc1N/C=C/C(=O)c1ccc(Cl)cc1`, the Potency is reported as inconclusive: 7.08 µM [inhibitor, partial curve, poor fit]. For `Cc1cc(NC(=O)CSc2nc3cc(C)c(C)cc3cc2C)no1`, the Potency was inconclusive: 2.24 µM [inhibitor, full curve]. In the case of `CCCN1CCC[C@@H](c2cccc(O)c2)C1`, the Potency is reported as inconclusive: 0.562 µM [inhibitor, full curve]. For `O=C1NCCN1CCN1C(=O)c2ccccc2NC1c1ccccc1` (stereo not given), the Potency was inconclusive: 2.82 µM [activator, partial curve, poor fit]. For `CC(=O)Nc1ccc(C(=O)N/N=C/c2ccccc2OC(=O)c2ccc(Cl)cc2)cc1`, the Potency was inconclusive: 11.2 µM [inhibitor, single point]. For `O=C(CC1N=C2c3ccccc3N=C(SCC(=O)Nc3cccc(Cl)c3)N2C1=O)NCc1cccs1` (stereo not given), the Potency was inconclusive: 35.5 µM [inhibitor, single point]. With `Cc1cc2cc(C)c(NCCNC(=O)c3cccs3)nc2cc1C` the Potency was inconclusive: 31.6 µM [inhibitor, single point]. In the case of `CCc1ccc(C(C(=O)NC2CCCCC2)N(C(=O)c2csnn2)C2CC2)cc1` (stereo not given), the Potency is reported as inconclusive: 7.08 µM [inhibitor, partial curve, poor fit]. In the case of `COc1ccc(NC(=O)c2ccc(Br)o2)c([N+](=O)[O-])c1`, the “activity change, negative = inhibition” value is reported as inactive: -0.814%. For `Cc1cc(Nc2cccc(Cl)c2)nc(-c2ccccc2O)n1`, the Potency was inconclusive: 35.5 µM [inhibitor, single point]. For `Cc1ccc(-c2nc(C)sc2CC(=O)Nc2cccc(C)c2C)cc1`, the Potency was inconclusive: 5.62 µM [activator, single point]. With `Cc1ccc(SCCOCCN2CC(C)OC(C)C2)cc1` (stereo not given) the Potency was inconclusive: 17.8 µM [inhibitor, single point]. With `CCCCN(C(=O)CSCC(=O)Nc1cccc(C)c1)c1c(N)n(CCCC)c(=O)[nH]c1=O` the “activity change, negative = inhibition” value was inactive: -18.1%. For `O=C(NCC(c1cccs1)N1CCOCC1)C1CCN(S(=O)(=O)c2c(Cl)cccc2Cl)CC1` (stereo not given), the “activity change, negative = inhibition” value was inactive: -10.9%. In the case of `CC(C)c1ccc(C(=O)N(c2ccccn2)C(C)c2ccco2)cc1` (stereo not given), the “activity change, negative = inhibition” value is reported as inactive: 0.744%. With `Cc1cccc(/C=N\NC(=O)c2ccccc2-n2cccc2)c1` the “activity change, negative = inhibition” value was inactive: -20.9% [at 14.2 µM]. For `O=C(Nc1ccc(OC(F)(F)F)cc1)c1cnccn1`, the Potency was inconclusive: 14.1 µM [inhibitor, single point]. For `CCOC(=O)c1cc(-c2ccncc2)nc2c1c(C)nn2C`, the Potency was inconclusive: 11.6 µM [inhibitor, partial curve]. In the case of `C/C(=N\OCC(=O)OCC(=O)NC(=O)c1ccccc1)c1ccc2c(c1)OCO2`, the “activity change, negative = inhibition” value is reported as inactive: -1.77% [at 46.1 µM]. With `O=C(CCS(=O)(=O)c1cccc2nonc12)Nc1cccc2c1CCCC2` the Potency was inconclusive: 4.11 µM [inhibitor, single point]. In the case of `Cc1cc(NC(=O)CSc2nc(C(C)C)nc3sc4c(c23)CCCC4)no1`, the Potency is reported as inconclusive: 29.1 µM [inhibitor, single point]. In the case of `Cc1cc(OC(C)C(N)=O)nc(-c2ccccc2)n1` (stereo not given), the Potency is reported as inconclusive: 0.562 µM [activator, full curve, poor fit]. In the case of `C/C(=N\N1CCCCC1)c1c(O)[nH]c(=O)[nH]c1=O`, the “activity change, negative = inhibition” value is reported as inactive: 0.909%. In the case of `CC(C)CC(NC(=O)c1cccs1)c1nnc(SCc2ccc(Cl)c(Cl)c2)n1C` (stereo not given), the Potency is reported as inconclusive: 12.6 µM [inhibitor, partial curve, poor fit]. For `COCCn1c(SCC(=O)Nc2ccc(OC)cc2)nnc1-c1ccoc1C`, the Potency was inconclusive: 17.8 µM [inhibitor, single point]. In the case of `COc1ccc(OC(=O)c2cccnc2)cc1`, the “activity change, negative = inhibition” value is reported as inactive: 0.187% [at 46.1 µM]. In the case of `COCCNc1ncnc2c1cnn2-c1ccc(Cl)cc1`, the Potency is reported as inconclusive: 0.562 µM [activator, full curve, poor fit]. For `Nc1c(C(=O)c2cccs2)oc2ccccc12`, the Potency was inconclusive: 6.51 µM [activator, single point]. With `CCOC(=O)Nc1c(C)n(C)n(-c2ccccc2)c1=O` the “activity change, negative = inhibition” value was inactive: -13%. With `COC(=O)/C(=C/c1ccco1)NC(=O)c1ccc(Br)o1` the Potency was inconclusive: 6.31 µM [inhibitor, full curve, poor fit]. In the case of `C/C(=N\NC(=O)C1(C)CC1(Br)Br)c1ccc(NC(=O)C2CCC2)cc1` (stereo not given), the “activity change, negative = inhibition” value is reported as inactive: -9.86%. For `CCOC(=O)C1=C(C)OC(N)=C(C#N)C1c1ccc(C)s1` (stereo not given), the “activity change, negative = inhibition” value was inactive: 4.04% [at 46.1 µM]. In the case of `CCc1ccc(NC(=O)Cn2c(=O)c(-c3ccccc3NC(C)=O)nc3ccccc32)cc1`, the “activity change, negative = inhibition” value is reported as inactive: -0.67% [at 46.1 µM]. In the case of `CCOC(=O)c1ccc(N2Cc3ccccc3C2)cc1O`, the “activity change, negative = inhibition” value is reported as inactive: -2.09%. In the case of `CC(C)(CC(=O)O)CC(=O)Nc1ccccc1Oc1ccccc1`, the “activity change, negative = inhibition” value is reported as inactive: 1.51% [at 46.1 µM]. In the case of `Cc1ccc(S(=O)(=O)N[C@@H](CCCCN)C(=O)CCl)cc1`, the Potency is reported as active: 12.6 µM. In the case of `CCOC(=O)C(C)n1cnc2c(nnn2-c2ccc(C)cc2)c1=O` (stereo not given), the “activity change, negative = inhibition” value is reported as inactive: 17.1%. In the case of `O=[N+]([O-])c1cccc(S(=O)(=O)Nc2cccc(-c3ccc(N4CCOCC4)nn3)c2)c1`, the “activity change, negative = inhibition” value is reported as inactive: -3.25%. For `CCc1c(C(=O)Nc2ccc(OC)c(Cl)c2)[nH]c(C)c1C(C)=O`, the Potency was inconclusive: 0.411 µM [inhibitor, full curve, poor fit].
